Laboratory results: the supplement of paper PMC12067093, “Discovery and optimisation of a covalent ligand for TRIM25 and its application to targeted protein ubiquitination” (Chemical Science, 2025)
Some of the results follow.

Protein sequences, listed by entry. Tags and fused reporters are not part of them. Lines headed by an entry give the natural chain unless they say otherwise; changes in a name come on top.
UniProt P53992: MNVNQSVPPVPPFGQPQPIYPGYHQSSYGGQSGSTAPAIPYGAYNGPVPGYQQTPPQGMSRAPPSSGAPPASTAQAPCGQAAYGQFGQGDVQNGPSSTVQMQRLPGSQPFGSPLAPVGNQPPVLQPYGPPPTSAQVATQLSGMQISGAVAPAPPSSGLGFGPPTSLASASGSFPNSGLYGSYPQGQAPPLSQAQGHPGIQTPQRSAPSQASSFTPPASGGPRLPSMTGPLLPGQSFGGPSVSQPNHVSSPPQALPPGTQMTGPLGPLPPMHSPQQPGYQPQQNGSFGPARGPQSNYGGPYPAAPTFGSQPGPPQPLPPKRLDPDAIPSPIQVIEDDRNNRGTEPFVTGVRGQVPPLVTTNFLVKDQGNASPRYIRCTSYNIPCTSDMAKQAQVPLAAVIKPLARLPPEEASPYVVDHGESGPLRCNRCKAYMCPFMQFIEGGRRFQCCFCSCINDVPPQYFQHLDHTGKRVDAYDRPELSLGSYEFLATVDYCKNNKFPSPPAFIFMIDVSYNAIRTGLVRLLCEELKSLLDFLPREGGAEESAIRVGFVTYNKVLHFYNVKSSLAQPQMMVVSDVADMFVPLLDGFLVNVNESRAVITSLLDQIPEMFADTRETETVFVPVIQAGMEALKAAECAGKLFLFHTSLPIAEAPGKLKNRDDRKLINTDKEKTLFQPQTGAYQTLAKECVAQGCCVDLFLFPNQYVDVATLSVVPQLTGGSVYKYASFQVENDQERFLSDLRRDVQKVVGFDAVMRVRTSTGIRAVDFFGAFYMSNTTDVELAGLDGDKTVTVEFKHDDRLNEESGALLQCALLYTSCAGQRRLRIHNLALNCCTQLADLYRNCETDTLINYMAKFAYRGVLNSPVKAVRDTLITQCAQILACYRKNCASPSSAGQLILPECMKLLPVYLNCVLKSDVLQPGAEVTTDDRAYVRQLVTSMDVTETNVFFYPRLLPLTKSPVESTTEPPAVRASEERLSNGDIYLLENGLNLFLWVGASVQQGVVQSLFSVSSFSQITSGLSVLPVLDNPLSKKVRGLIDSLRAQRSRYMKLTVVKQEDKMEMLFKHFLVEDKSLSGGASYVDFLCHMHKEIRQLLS
UniProt Q96EE3: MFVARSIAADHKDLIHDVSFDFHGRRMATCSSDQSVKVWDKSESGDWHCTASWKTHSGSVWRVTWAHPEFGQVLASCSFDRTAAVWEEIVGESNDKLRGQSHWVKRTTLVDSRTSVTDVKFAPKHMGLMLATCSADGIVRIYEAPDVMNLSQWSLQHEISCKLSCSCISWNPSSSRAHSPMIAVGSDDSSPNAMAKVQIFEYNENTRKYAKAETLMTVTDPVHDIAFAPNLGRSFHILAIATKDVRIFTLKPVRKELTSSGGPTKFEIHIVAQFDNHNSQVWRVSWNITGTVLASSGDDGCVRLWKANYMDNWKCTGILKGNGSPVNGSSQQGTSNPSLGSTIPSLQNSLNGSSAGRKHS
UniProt Q9NSI8: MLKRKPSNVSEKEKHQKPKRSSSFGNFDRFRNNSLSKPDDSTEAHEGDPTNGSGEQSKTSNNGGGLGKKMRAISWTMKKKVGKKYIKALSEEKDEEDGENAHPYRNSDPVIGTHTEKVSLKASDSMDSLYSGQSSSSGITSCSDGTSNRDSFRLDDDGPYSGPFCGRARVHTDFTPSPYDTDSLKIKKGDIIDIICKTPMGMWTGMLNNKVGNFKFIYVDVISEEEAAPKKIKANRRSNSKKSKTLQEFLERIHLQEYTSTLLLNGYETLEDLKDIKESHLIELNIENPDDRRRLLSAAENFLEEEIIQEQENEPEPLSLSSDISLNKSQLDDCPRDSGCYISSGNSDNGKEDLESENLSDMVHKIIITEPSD
UniProt Q9Y6B6: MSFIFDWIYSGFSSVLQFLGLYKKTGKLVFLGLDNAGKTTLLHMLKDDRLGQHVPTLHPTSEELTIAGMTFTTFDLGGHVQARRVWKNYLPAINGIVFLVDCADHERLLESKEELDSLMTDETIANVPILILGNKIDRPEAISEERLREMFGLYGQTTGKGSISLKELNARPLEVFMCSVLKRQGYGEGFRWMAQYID
UniProt Q96IW7: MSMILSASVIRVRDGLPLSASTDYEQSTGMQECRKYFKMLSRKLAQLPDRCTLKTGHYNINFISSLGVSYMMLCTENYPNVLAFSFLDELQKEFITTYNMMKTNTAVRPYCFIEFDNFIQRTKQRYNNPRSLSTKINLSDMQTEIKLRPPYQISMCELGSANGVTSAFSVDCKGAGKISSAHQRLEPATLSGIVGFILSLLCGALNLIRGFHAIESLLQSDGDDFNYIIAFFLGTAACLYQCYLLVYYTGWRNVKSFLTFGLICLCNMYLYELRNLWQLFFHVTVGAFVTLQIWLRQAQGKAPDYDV
UniProt P21912: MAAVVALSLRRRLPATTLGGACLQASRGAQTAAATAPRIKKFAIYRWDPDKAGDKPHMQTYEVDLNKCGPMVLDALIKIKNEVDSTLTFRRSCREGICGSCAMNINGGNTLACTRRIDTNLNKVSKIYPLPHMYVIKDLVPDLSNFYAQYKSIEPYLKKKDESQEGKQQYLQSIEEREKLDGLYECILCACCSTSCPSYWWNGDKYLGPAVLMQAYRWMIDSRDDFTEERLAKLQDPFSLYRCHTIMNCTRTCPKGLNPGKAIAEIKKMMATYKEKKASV
UniProt O95248: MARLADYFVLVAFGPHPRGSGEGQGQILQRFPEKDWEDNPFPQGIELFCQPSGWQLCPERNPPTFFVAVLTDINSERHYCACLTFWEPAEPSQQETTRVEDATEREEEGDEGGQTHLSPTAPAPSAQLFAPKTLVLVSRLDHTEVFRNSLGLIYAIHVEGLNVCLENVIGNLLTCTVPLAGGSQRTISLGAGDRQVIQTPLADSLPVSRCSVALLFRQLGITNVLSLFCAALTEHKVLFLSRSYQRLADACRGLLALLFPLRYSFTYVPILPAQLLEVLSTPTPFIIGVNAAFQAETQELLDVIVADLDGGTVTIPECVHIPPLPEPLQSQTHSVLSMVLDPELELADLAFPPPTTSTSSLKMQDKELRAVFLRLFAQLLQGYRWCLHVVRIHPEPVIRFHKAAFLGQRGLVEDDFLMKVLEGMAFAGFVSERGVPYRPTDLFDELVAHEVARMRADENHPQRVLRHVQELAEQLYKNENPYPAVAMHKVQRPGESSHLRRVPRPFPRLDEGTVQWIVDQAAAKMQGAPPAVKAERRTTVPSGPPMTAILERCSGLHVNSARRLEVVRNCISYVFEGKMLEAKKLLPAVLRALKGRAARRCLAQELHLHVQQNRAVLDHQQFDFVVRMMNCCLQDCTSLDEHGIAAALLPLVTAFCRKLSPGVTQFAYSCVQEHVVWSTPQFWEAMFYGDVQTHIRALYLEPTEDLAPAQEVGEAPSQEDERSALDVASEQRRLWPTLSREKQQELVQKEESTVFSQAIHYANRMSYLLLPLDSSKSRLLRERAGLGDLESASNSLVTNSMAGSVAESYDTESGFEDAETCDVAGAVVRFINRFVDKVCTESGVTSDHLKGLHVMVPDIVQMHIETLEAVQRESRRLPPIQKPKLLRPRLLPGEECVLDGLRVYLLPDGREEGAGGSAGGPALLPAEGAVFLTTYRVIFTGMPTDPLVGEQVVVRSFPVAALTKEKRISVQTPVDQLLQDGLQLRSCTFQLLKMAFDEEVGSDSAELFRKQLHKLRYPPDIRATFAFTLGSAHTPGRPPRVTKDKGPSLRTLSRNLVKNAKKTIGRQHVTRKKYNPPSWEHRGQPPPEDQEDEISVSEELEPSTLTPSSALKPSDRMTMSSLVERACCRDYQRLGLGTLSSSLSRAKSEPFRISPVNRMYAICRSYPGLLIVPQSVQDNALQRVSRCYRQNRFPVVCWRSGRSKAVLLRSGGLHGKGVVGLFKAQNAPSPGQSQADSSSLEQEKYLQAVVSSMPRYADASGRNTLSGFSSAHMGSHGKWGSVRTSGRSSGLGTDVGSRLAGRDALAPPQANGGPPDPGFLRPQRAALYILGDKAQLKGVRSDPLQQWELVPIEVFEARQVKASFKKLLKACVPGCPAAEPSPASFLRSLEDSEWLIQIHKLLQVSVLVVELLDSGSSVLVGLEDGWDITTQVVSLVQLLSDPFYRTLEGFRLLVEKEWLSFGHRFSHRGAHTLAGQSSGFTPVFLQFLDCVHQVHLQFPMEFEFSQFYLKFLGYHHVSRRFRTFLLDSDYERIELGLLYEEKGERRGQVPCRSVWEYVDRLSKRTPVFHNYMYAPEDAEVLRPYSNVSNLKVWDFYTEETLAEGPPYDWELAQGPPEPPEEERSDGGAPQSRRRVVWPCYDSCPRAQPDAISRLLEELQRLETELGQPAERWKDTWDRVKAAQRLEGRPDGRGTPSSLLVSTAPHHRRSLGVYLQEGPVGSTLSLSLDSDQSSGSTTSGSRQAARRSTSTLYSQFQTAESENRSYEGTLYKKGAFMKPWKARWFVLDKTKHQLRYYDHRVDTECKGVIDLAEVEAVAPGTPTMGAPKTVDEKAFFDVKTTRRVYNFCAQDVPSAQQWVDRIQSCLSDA
UniProt Q9BY12: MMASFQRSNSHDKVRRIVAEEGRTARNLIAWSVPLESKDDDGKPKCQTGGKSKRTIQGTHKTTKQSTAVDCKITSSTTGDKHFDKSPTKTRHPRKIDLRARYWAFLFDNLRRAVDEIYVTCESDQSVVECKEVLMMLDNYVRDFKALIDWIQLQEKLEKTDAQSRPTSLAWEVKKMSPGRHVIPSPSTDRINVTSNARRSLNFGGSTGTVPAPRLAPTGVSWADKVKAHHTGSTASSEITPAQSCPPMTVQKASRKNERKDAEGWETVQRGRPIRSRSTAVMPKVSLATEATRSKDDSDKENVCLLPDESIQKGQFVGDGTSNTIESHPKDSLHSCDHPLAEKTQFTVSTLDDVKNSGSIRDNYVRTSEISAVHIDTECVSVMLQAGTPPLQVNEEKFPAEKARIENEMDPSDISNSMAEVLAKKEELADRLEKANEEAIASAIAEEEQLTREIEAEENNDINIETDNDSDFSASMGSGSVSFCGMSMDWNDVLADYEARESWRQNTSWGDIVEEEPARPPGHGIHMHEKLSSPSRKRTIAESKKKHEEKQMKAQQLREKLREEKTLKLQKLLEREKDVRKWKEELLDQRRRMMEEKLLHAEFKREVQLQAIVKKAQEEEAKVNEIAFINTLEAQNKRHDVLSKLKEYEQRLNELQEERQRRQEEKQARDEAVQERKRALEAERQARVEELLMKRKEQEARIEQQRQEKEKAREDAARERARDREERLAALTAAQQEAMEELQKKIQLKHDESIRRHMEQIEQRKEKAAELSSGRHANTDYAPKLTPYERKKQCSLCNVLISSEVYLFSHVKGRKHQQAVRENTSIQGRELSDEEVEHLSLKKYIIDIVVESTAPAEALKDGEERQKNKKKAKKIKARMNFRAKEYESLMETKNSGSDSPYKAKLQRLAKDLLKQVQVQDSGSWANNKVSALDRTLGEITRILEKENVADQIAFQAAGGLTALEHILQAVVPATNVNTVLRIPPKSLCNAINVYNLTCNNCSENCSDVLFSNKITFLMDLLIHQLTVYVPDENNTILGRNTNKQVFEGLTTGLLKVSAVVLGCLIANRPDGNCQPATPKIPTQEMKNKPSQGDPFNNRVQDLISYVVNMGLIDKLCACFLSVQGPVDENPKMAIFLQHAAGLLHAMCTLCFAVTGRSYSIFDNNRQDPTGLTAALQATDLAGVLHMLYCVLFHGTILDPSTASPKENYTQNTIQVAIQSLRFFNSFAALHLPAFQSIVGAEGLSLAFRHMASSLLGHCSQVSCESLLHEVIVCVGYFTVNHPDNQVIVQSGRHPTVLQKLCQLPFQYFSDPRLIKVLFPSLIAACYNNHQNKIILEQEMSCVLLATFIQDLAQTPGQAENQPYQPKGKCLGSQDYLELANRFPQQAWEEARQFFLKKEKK
UniProt Q6UVJ0: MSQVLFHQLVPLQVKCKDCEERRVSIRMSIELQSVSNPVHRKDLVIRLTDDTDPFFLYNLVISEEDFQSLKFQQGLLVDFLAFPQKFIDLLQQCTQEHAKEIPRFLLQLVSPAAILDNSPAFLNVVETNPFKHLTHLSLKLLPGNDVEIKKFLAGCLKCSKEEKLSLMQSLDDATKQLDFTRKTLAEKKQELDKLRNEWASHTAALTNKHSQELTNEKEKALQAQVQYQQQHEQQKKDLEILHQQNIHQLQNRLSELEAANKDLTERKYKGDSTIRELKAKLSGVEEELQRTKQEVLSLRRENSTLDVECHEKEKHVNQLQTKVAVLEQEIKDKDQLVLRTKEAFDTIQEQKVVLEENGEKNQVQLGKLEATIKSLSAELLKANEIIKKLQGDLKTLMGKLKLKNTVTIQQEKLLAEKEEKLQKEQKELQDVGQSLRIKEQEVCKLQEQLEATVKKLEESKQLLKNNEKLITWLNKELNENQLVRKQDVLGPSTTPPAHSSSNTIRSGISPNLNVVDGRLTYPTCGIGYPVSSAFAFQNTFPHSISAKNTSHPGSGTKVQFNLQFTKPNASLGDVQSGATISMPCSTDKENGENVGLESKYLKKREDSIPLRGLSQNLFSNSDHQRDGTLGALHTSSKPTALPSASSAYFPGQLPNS

The targets below were run with CC1Cc2ccccc2N1C(=O)C1CCCN(C1)C(=O)CCl (mixture of isomers) [TRIM25 ligand 11 (diastereomer mixture)] (assay: probe-labelled cysteine peptide fold change vs DMSO (competition) (log2 fold change); higher = less target engagement (more negative = stronger competition)). Details: 10 µM; THP-1; incubation time: 4 h.
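Note: competitive chemoproteomic profiling in live THP-1 cells with an iodoacetamide desthiobiotin (IA-DTB) probe, comparing probe-labelled peptide intensities in compound-treated cells against DMSO-treated controls.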

Row | Target | probe-labelled cysteine peptide fold change
1 | SDF2L1_Q9HCN8_149_CSGQHWER (UniProt Q9HCN8) | 0.0167
2 | SEC24C_P53992_881_DTLITQCAQILACYR (UniProt P53992) | 0.0228
3 | SDHA_P31040_654_TLNEADCATVPPAIR (UniProt P31040) | 0.0204
4 | SEL1L_Q9UBV2_127_PALTAIEGTAHGEPCHFPFLFLDK (UniProt Q9UBV2) | -0.0147
5 | SEPHS2_Q99611_377_FGLLQGTSAETSGGLLICLPR (UniProt Q99611) | 0.196
6 | SEH1L_Q96EE3_30_MATCSSDQSVK (UniProt Q96EE3) | 0.0276
7 | SATB1_Q01826_91_GTMLPVFCVVEHYENAIEYDCKEEHAEFVLVRK (UniProt Q01826) | -0.0244
8 | SCAF8_Q9UPN6_475_TLSVCSTTLWVGQVDKK (UniProt Q9UPN6) | -0.0995
9 | SAMSN1_Q9NSI8_165_DSFRLDDDGPYSGPFCGR (UniProt Q9NSI8) | -0.0612
10 | SAR1B_Q9Y6B6_178_ELNARPLEVFMCSVLKR (UniProt Q9Y6B6) | -0.462
11 | SEL1L_Q9UBV2_539_SCHTAVELFK (UniProt Q9UBV2) | 0.21
12 | SCAF11_Q99590_446_EHQPDVDSSNICTVQTHVENQSANCLK (UniProt Q99590) | -0.00925
13 | SCP2_P22307_495_KADCTITMADSDFLALMTGK (UniProt P22307) | -0.0486
14 | SCLY_Q96I15_22_DAPAPAASQPSGCGK (UniProt Q96I15) | -0.0532
15 | SCFD2_Q8WU76_236_EECFAVGSLSQVIAADLANYAPAK (UniProt Q8WU76) | -0.13
16 | SBNO1_A3KN83_425_QLLHWCGDDFDGVIVFDECHK (UniProt A3KN83) | 0.0519
17 | SCAF4_O95104_420_PHQQEMEVEQPCIQEVK (UniProt O95104) | 0.063
18 | SEC22A_Q96IW7_111_TNTAVRPYCFIEFDNFIQR (UniProt Q96IW7) | -0.0683

Row | Target | probe-labelled cysteine peptide fold change
19 | SEC24D_O94855_1022_GLYGGSSYVDFLCCVHK (UniProt O94855) | 0.0643
20 | SCAF11_Q99590_752_QMNENSVTHCSENNMPSSDLADEK (UniProt Q99590) | 0.00365
21 | SCMH1_Q96GD3_76_NTTSTCIATVVGLTGAR (UniProt Q96GD3) | -0.00851
22 | SAMHD1_Q9Y3Z3_320_DCHHLGIQNNFDYKR (UniProt Q9Y3Z3) | -0.0928
23 | SDHB_P21912_249_CHTIMNCTR (UniProt P21912) | -0.0566
24 | SAMSN1_Q9NSI8_165_LDDDGPYSGPFCGR (UniProt Q9NSI8) | 0.178
25 | SEC22A_Q96IW7_33_VRDGLPLSASTDYEQSTGMQECR (UniProt Q96IW7) | -0.0539
26 | SBF1_O95248_987_SCTFQLLK (UniProt O95248) | -0.0361
27 | SBDS_Q9Y3A5_210+216_VIESEDYGQQLEIVCLIDPGCFR (UniProt Q9Y3A5) | 0.0314
28 | SCMH1_Q96GD3_116_LVDSAEIQPIGNCEK (UniProt Q96GD3) | 0.0496
29 | SCAPER_Q9BY12_336_DSLHSCDHPLAEK (UniProt Q9BY12) | -0.0351
30 | SEC63_Q9UGP8_295_NEPPLTCPYSLK (UniProt Q9UGP8) | -0.101
31 | SCLY_Q96I15_388_VLMASVGAACHSDHGDQPSPVLLSYGVPFDVAR (UniProt Q96I15) | 0.147
32 | SEC23B_Q15437_61_ERPDLPPVQYEPVLCSR (UniProt Q15437) | 0.0697
33 | SBF1_O95248_601_CLAQELHLHVQQNR (UniProt O95248) | 0.05
34 | SASS6_Q6UVJ0_94_FIDLLQQCTQEHAK (UniProt Q6UVJ0) | 0.0471
35 | SEC23IP_Q9Y6Y8_604_CPGPLAVANGVVK (UniProt Q9Y6Y8) | -0.115
36 | SEC23B_Q15437_66_ERPDLPPVQYEPVLCSRPTCK (UniProt Q15437) | 0.0013

Same assay, conditions: 50 µM; THP-1; incubation time: 4 h

Row | Target | probe-labelled cysteine peptide fold change
37 | SDF2L1_Q9HCN8_149_CSGQHWER (UniProt Q9HCN8) | -0.155
38 | SEC24C_P53992_881_DTLITQCAQILACYR (UniProt P53992) | 0.163
39 | SDHA_P31040_654_TLNEADCATVPPAIR (UniProt P31040) | -0.209
40 | SEL1L_Q9UBV2_127_PALTAIEGTAHGEPCHFPFLFLDK (UniProt Q9UBV2) | 0.277
41 | SEPHS2_Q99611_377_FGLLQGTSAETSGGLLICLPR (UniProt Q99611) | -0.657
42 | SEH1L_Q96EE3_30_MATCSSDQSVK (UniProt Q96EE3) | 0.0137
43 | SATB1_Q01826_91_GTMLPVFCVVEHYENAIEYDCKEEHAEFVLVRK (UniProt Q01826) | -0.241
44 | SCAF8_Q9UPN6_475_TLSVCSTTLWVGQVDKK (UniProt Q9UPN6) | -0.107
45 | SAMSN1_Q9NSI8_165_DSFRLDDDGPYSGPFCGR (UniProt Q9NSI8) | 0.0886
46 | SAR1B_Q9Y6B6_178_ELNARPLEVFMCSVLKR (UniProt Q9Y6B6) | -0.351
47 | SEL1L_Q9UBV2_539_SCHTAVELFK (UniProt Q9UBV2) | -0.0684
48 | SCAF11_Q99590_446_EHQPDVDSSNICTVQTHVENQSANCLK (UniProt Q99590) | -0.237
49 | SCP2_P22307_495_KADCTITMADSDFLALMTGK (UniProt P22307) | 0.0238
50 | SCLY_Q96I15_22_DAPAPAASQPSGCGK (UniProt Q96I15) | -0.13
51 | SCFD2_Q8WU76_236_EECFAVGSLSQVIAADLANYAPAK (UniProt Q8WU76) | -0.0185
52 | SBNO1_A3KN83_425_QLLHWCGDDFDGVIVFDECHK (UniProt A3KN83) | 0.0346
53 | SCAF4_O95104_420_PHQQEMEVEQPCIQEVK (UniProt O95104) | -0.211
54 | SEC22A_Q96IW7_111_TNTAVRPYCFIEFDNFIQR (UniProt Q96IW7) | -0.146

Row | Target | probe-labelled cysteine peptide fold change
55 | SEC24D_O94855_1022_GLYGGSSYVDFLCCVHK (UniProt O94855) | 0.0939
56 | SCAF11_Q99590_752_QMNENSVTHCSENNMPSSDLADEK (UniProt Q99590) | -0.727
57 | SCMH1_Q96GD3_76_NTTSTCIATVVGLTGAR (UniProt Q96GD3) | 0.00583
58 | SAMHD1_Q9Y3Z3_320_DCHHLGIQNNFDYKR (UniProt Q9Y3Z3) | -0.0432
59 | SDHB_P21912_249_CHTIMNCTR (UniProt P21912) | 0.201
60 | SAMSN1_Q9NSI8_165_LDDDGPYSGPFCGR (UniProt Q9NSI8) | 0.239
61 | SEC22A_Q96IW7_33_VRDGLPLSASTDYEQSTGMQECR (UniProt Q96IW7) | -0.102
62 | SBF1_O95248_987_SCTFQLLK (UniProt O95248) | 0.064
63 | SBDS_Q9Y3A5_210+216_VIESEDYGQQLEIVCLIDPGCFR (UniProt Q9Y3A5) | -0.236
64 | SCMH1_Q96GD3_116_LVDSAEIQPIGNCEK (UniProt Q96GD3) | 0.0724
65 | SCAPER_Q9BY12_336_DSLHSCDHPLAEK (UniProt Q9BY12) | -0.308
66 | SEC63_Q9UGP8_295_NEPPLTCPYSLK (UniProt Q9UGP8) | -0.151
67 | SCLY_Q96I15_388_VLMASVGAACHSDHGDQPSPVLLSYGVPFDVAR (UniProt Q96I15) | -0.232
68 | SEC23B_Q15437_61_ERPDLPPVQYEPVLCSR (UniProt Q15437) | 0.119
69 | SBF1_O95248_601_CLAQELHLHVQQNR (UniProt O95248) | 0.0832
70 | SASS6_Q6UVJ0_94_FIDLLQQCTQEHAK (UniProt Q6UVJ0) | 0.0533
71 | SEC23IP_Q9Y6Y8_604_CPGPLAVANGVVK (UniProt Q9Y6Y8) | -0.126
72 | SEC23B_Q15437_66_ERPDLPPVQYEPVLCSRPTCK (UniProt Q15437) | -0.00603
